The results in this text go back to publication doi:10.1101/253294.

Amino acid sequences for entries named in this document (tags omitted).
UniProt Q15436: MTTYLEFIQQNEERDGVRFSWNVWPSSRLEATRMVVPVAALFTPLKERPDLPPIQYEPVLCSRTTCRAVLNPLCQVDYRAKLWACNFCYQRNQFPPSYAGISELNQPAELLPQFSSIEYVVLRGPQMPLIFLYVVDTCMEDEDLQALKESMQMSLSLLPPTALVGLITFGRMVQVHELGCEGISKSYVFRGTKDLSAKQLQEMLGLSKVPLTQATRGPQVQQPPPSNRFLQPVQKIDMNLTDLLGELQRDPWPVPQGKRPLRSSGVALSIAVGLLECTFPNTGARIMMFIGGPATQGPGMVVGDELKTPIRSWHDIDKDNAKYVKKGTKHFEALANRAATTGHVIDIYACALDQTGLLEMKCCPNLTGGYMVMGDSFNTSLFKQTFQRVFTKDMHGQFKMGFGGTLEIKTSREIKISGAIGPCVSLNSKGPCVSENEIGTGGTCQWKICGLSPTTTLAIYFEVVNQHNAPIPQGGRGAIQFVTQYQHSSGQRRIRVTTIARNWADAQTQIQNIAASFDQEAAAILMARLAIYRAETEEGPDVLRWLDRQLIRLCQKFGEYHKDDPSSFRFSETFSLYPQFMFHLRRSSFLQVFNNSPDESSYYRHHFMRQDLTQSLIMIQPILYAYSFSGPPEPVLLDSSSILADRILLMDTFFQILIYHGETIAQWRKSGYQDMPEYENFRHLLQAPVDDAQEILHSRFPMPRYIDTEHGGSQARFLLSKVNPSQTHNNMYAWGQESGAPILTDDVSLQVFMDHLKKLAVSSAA

No constants are given. Whether binding was seen depends on the method and setting. Some binding calls cover weakened binding; strength is not graded here. For some assays here: Tags and fused reporters may be left off the sequences shown.

The target of one assay is T1, His6-Sec13 (UniProt P55735).
T1 sequence: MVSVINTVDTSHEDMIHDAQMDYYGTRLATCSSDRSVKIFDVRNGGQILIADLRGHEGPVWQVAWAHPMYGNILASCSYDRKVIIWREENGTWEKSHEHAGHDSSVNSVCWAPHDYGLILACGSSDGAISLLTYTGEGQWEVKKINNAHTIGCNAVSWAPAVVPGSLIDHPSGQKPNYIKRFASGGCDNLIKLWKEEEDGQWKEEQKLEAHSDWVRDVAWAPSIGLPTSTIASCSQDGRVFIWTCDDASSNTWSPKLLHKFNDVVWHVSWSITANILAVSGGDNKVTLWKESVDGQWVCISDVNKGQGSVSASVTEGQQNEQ
The experiment in a line: co-purification.

In another assay the target is His6-Sec23A (UniProt Q15436). The experiment in a line: co-purification.

B1: Sec31A (protein, UniProt O94979 1-1220)
chain: MKLKEVDRTAMQAWSPAQNHPIYLATGTSAQQLDATFSTNASLEIFELDLSDPSLDMKSCATFSSSHRYHKLIWGPYKMDSKGDVSGVLIAGGENGNIILYDPSKIIAGDKEVVIAQNDKHTGPVRALDVNIFQTNLVASGANESEIYIWDLNNFATPMTPGAKTQPPEDISCIAWNRQVQHILASASPSGRATVWDLRKNEPIIKVSDHSNRMHCSGLAWHPDVATQMVLASEDDRLPVIQMWDLRFASSPLRVLENHARGILAIAWSMADPELLLSCGKDAKILCSNPNTGEVLYELPTNTQWCFDIQWCPRNPAVLSAASFDGRISVYSIMGGSTDGLRQKQVDKLSSSFGNLDPFGTGQPLPPLQIPQQTAQHSIVLPLKKPPKWIRRPVGASFSFGGKLVTFENVRMPSHQGAEQQQQQHHVFISQVVTEKEFLSRSDQLQQAVQSQGFINYCQKKIDASQTEFEKNVWSFLKVNFEDDSRGKYLELLGYRKEDLGKKIALALNKVDGANVALKDSDQVAQSDGEESPAAEEQLLGEHIKEEKEESEFLPSSGGTFNISVSGDIDGLITQALLTGNFESAVDLCLHDNRMADAIILAIAGGQELLARTQKKYFAKSQSKITRLITAVVMKNWKEIVESCDLKNWREALAAVLTYAKPDEFSALCDLLGTRLENEGDSLLQTQACLCYICAGNVEKLVACWTKAQDGSHPLSLQDLIEKVVILRKAVQLTQAMDTSTVGVLLAAKMSQYANLLAAQGSIAAALAFLPDNTNQPNIMQLRDRLCRAQGEPVAGHESPKIPYEKQQLPKGRPGPVAGHHQMPRVQTQQYYPHGENPPPPGFIMHGNVNPNAAGQLPTSPGHMHTQVPPYPQPQPYQPAQPYPFGTGGSAMYRPQQPVAPPTSNAYPNTPYISSASSYTGQSQLYAAQHQASSPTSSPATSFPPPPSSGASFQHGGPGAPPSSSAYALPPGTTGTLPAASELPASQRTGPQNGWNDPPALNRVPKKKKMPENFMPPVPITSPIMNPLGDPQSQMLQQQPSAPVPLSSQSSFPQPHLPGGQPFHGVQQPLGQTGMPPSFSKPNIEGAPGAPIGNTFQHVQSLPTKKITKKPIPDEHLILKTTFEDLIQRCLSSATDPQTKRKLDDASKRLEFLYDKLREQTLSPTITSGLHNIARSIETRNYSEGLTMHTHIVSTSNFSETSAFMPVLKVVLTQANKLGV
In the case of B1, the binding entry with His6-Sec13 is given as “binds”.

B2: Sec24B (protein, UniProt O95487 1-1268)
chain: MSAPAGSSHPAASARIPPKFGGAAVSGAAAPAGPGAGPAPHQQNGPAQNQMQVPSGYGLHHQNYIAPSGHYSQGPGKMTSLPLDTQCGDYYSALYTVPTQNVTPNTVNQQPGAQQLYSRGPPAPHIVGSTLGSFQGAASSASHLHTSASQPYSSFVNHYNSPAMYSASSSVASQGFPSTCGHYAMSTVSNAAYPSVSYPSLPAGDTYGQMFTSQNAPTVRPVKDNSFSGQNTAISHPSPLPPLPSQQHHQQQSLSGYSTLTWSSPGLPSTQDNLIRNHTGSLAVANNNPTITVADSLSCPVMQNVQPPKSSPVVSTVLSGSSGSSSTRTPPTANHPVEPVTSVTQPSELLQQKGVQYGEYVNNQASSAPTPLSSTSDDEEEEEEDEEAGVDSSSTTSSASPMPNSYDALEGGSYPDMLSSSASSPAPDPAPEPDPASAPAPASAPAPVVPQPSKMAKPFGYGYPTLQPGYQNATAPLISGVQPSNPVYSGFQQYPQQYPGVNQLSSSIGGLSLQSSPQPESLRPVNLTQERNILPMTPVWAPVPNLNADLKKLNCSPDSFRCTLTNIPQTQALLNKAKLPLGLLLHPFRDLTQLPVITSNTIVRCRSCRTYINPFVSFIDQRRWKCNLCYRVNDVPEEFMYNPLTRSYGEPHKRPEVQNSTVEFIASSDYMLRPPQPAVYLFVLDVSHNAVEAGYLTILCQSLLENLDKLPGDSRTRIGFMTFDSTIHFYNLQEGLSQPQMLIVSDIDDVFLPTPDSLLVNLYESKELIKDLLNALPNMFTNTRETHSALGPALQAAFKLMSPTGGRVSVFQTQLPSLGAGLLQSREDPNQRSSTKVVQHLGPATDFYKKLALDCSGQQTAVDLFLLSSQYSDLASLACMSKYSAGCIYYYPSFHYTHNPSQAEKLQKDLKRYLTRKIGFEAVMRIRCTKGLSMHTFHGNFFVRSTDLLSLANINPDAGFAVQLSIEESLTDTSLVCFQTALLYTSSKGERRIRVHTLCLPVVSSLADVYAGVDVQAAICLLANMAVDRSVSSSLSDARDALVNAVVDSLSAYGSTVSNLQHSALMAPSSLKLFPLYVLALLKQKAFRTGTSTRLDDRVYAMCQIKSQPLVHLMKMIHPNLYRIDRLTDEGAVHVNDRIVPQPPLQKLSAEKLTREGAFLMDCGSVFYIWVGKGCDNNFIEDVLGYTNFASIPQKMTHLPELDTLSSERARSFITWLRDSRPLSPILHIVKDESPAKAEFFQHLIEDRTEAAFSYYEFLLHVQQQICK
As for B2, the binding entry with His6-Sec23A is on record as “binds”.
